Laboratory results published in the supplement of paper PMC10849652.
The other results are listed elsewhere or left out.

Sequences of proteins named here, by UniProt entry; tags and fusion partners are left off. A change or cut given only in a name is not applied to a line headed by its entry.
UniProt Q13362, whole entry, looked up: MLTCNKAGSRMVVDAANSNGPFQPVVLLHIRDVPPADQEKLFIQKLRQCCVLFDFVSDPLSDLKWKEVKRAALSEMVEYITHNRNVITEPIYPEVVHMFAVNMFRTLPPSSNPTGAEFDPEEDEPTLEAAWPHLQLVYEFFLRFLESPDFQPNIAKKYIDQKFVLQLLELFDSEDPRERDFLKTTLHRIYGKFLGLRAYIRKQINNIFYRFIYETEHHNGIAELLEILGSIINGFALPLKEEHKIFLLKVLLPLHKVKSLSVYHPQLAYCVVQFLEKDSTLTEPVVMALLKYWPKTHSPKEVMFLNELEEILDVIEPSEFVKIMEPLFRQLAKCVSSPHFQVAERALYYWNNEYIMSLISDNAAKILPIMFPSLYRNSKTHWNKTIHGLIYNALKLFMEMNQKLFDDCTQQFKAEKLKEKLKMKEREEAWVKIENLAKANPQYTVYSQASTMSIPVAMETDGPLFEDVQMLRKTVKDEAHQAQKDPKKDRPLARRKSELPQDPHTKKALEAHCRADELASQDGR
UniProt Q8TAP8: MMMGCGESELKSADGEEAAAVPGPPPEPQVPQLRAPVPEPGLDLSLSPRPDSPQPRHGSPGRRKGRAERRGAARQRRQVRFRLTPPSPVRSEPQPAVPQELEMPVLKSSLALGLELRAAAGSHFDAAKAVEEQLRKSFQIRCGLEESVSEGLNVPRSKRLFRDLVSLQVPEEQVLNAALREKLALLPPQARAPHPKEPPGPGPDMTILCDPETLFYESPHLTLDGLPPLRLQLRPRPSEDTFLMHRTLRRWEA
UniProt Q4J6C6, whole entry, looked up: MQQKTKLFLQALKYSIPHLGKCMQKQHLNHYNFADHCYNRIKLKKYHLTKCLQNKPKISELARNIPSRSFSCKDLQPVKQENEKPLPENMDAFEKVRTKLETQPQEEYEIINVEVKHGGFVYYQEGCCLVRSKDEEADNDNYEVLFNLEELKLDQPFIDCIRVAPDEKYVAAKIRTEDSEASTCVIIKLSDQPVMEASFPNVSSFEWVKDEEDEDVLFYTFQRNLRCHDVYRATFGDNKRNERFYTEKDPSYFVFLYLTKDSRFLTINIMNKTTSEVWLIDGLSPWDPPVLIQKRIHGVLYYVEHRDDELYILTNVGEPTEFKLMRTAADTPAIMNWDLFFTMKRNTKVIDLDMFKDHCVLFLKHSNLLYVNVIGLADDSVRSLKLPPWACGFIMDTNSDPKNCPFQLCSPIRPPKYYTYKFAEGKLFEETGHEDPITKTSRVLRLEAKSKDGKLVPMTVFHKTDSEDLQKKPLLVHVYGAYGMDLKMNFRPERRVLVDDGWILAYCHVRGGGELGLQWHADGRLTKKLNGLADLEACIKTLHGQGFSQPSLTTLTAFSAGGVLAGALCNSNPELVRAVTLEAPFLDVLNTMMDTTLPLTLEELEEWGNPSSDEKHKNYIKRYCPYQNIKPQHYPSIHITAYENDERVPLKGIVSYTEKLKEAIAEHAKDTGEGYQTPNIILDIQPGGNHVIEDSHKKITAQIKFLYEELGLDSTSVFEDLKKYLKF
UniProt O43741: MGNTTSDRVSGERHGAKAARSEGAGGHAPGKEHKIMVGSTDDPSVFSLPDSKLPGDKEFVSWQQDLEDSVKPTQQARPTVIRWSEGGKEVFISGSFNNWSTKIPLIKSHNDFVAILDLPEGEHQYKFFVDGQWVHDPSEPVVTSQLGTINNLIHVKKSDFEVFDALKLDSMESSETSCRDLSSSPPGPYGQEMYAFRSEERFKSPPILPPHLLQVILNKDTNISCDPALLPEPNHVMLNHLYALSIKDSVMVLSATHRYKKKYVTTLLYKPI
UniProt Q9Y478: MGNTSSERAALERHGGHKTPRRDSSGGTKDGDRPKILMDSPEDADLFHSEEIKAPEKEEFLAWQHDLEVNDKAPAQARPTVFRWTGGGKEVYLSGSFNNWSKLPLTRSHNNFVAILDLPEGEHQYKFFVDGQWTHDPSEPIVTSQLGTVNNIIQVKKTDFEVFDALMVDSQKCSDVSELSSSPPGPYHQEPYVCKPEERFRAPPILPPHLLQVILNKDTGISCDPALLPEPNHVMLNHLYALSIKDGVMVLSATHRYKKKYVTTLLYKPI
UniProt Q9H875: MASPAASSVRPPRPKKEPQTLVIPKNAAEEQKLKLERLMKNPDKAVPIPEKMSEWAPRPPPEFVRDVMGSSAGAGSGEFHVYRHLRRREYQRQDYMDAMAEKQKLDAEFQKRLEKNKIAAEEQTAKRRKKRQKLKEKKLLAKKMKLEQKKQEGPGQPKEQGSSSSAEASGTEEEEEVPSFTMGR
UniProt Q9HCU5: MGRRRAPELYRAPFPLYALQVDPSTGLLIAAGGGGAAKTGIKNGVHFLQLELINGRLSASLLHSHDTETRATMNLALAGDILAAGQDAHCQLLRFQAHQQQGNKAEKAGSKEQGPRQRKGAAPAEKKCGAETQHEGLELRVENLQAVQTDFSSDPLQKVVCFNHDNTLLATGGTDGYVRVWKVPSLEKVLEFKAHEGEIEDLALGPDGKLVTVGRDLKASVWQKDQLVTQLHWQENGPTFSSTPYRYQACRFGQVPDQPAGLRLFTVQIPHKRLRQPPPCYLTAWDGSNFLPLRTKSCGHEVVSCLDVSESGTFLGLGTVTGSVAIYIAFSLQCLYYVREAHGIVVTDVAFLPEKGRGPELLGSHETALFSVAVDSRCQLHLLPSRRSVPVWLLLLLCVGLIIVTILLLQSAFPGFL

Experiments:
Experiment in all cases: log2 fold change, soluble protein after heating vs DMSO (PISA); higher = thermal stabilisation; K562 lysate, 10 uM; active = over 0.2 and 3.5 SD of the protein, either way, in both replicates (recomputed)
[1] = compound: NCC(=O)Nc1ccc(-n2nc(C(F)(F)F)cc2-c2ccc3c(ccc4ccccc43)c2)cc1
Procedure, shortened: (§1)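 The values are log-two fold changes in thermal stability compared with solvent controls and come from duplicates. They were obtained by TMTpro 16plex LC-MS/MS, with channel sums equalised, on the supernatant after 21,000xg for 90 min. That supernatant came from crude K562 extract at 1 mg/mL protein treated with 10 μM compound for 30 min, heated for 3 min across 48°C-58°C, pooled and brought to 0.5% NP-40 at 4°C.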

vorinostat = compound: O=C(CCCCCCC(=O)Nc1ccccc1)NO [vorinostat]
Procedure, shortened: as §1

silmitasertib = compound: O=C(O)c1ccc2c(c1)nc(Nc1cccc(Cl)c1)c1ccncc12 [silmitasertib]
Procedure, shortened: as §1

[2] = compound: O=C1NC(=O)C(c2cnc3ccccn23)=C1c1cn2c3c(cc(F)cc13)CN(C(=O)N1CCCCC1)CC2
Procedure, shortened: as §1

entospletinib = compound: c1cn2cc(-c3ccc4cn[nH]c4c3)nc(Nc3ccc(N4CCOCC4)cc3)c2n1 [entospletinib]
Procedure, shortened: as §1

Measured: log2 fold change

PPP2R5C isoform 4 (UniProt Q13362)
inactive: [1] 0.075 | vorinostat 0.082 | silmitasertib -0.067 | [2] 0.074 | entospletinib -0.012

PPP1R35 (UniProt Q8TAP8)
inactive: [1] -0.027 | vorinostat -0.054 | silmitasertib 0.143 | [2] 0.011 | entospletinib -0.012

PREPL (UniProt Q4J6C6)
inactive: [1] 0.018 | vorinostat 0.023 | silmitasertib 0.034 | [2] 0.01 | entospletinib -0.026

PRKAB2 (UniProt O43741)
inactive: [1] -0.006 | vorinostat -0.009 | silmitasertib 0.111 | [2] 0.096 | entospletinib 0.013

PRKAB1 (UniProt Q9Y478)
inactive: [1] 0.013 | vorinostat -0.046 | silmitasertib 0.04 | [2] 0.023 | entospletinib -0.014

PRKACA (UniProt P17612)
inactive: [1] -0.114 | vorinostat 0.007 | silmitasertib -0.02 | [2] 0.033 | entospletinib 0.03

PRKRIP1 (UniProt Q9H875)
inactive: [1] 0.028 | vorinostat 0.095 | silmitasertib -0.027 | [2] -0.046 | entospletinib -0.053

PPP3CA isoform 2 (UniProt Q08209)
inactive: [1] 0.006 | vorinostat 0.042 | silmitasertib 0.014 | [2] -0.025 | entospletinib 0.066

PREB (UniProt Q9HCU5)
inactive: [1] 0.044 | vorinostat 0.15 | silmitasertib -0.01 | [2] -0.017 | entospletinib 0.01
